{"source": "patent US20090162369A1", "about": "“SYNTHETIC CHIMERIC PEPTIDES” (priority 2007, published 2009)", "data": [{"experiment": "Conjugation efficiency of the TN peptides (affinity purification of peptide specific antibodies)", "conditions": "affinity column displaying multiple copies of the peptides", "units": {"Conjugation efficiency of the TN peptides for the purified antibodies": "%"}, "values": [{"sequence": "LRRDLDAEDEAKKQVEKALEC [TN peptide 3]", "Conjugation efficiency of the TN peptides for the purified antibodies": 76.7}, {"sequence": "LRRDLDAENEAKKQVEKALEC [TN peptide 2]", "Conjugation efficiency of the TN peptides for the purified antibodies": 100}, {"sequence": "LRRDLDAEREAKKQVEMALEC [TN peptide 6]", "Conjugation efficiency of the TN peptides for the purified antibodies": 100}, {"sequence": "LRRDLDAEREAKKQVERALEC [TN peptide 5]", "Conjugation efficiency of the TN peptides for the purified antibodies": 92}, {"sequence": "LRRDLDAEREAKNQVEKALEC [TN peptide 4]", "Conjugation efficiency of the TN peptides for the purified antibodies": 96}, {"sequence": "LRRDLDASDEAKKQVERALEC [TN peptide 16]", "Conjugation efficiency of the TN peptides for the purified antibodies": 100}, {"sequence": "LRRDLDASNEAKKQVEMALEC [TN peptide 14]", "Conjugation efficiency of the TN peptides for the purified antibodies": 100}, {"sequence": "LRRDLDASNEAKKQVERALEC [TN peptide 13]", "Conjugation efficiency of the TN peptides for the purified antibodies": 100}, {"sequence": "LRRDLDASNEAKNQVEKALEC [TN peptide 12]", "Conjugation efficiency of the TN peptides for the purified antibodies": 100}, {"sequence": "LRRDLDASREAKNQVEMALEC [TN peptide 19]", "Conjugation efficiency of the TN peptides for the purified antibodies": 55}, {"sequence": "LRRDLDASREAKNQVERALEC [TN peptide 18]", "Conjugation efficiency of the TN peptides for the purified antibodies": 100}, {"sequence": "LRRDLDAVDEAKKQVEKALEC [TN peptide 8]", "Conjugation efficiency of the TN peptides for the purified antibodies": 100}, {"sequence": "LRRDLDAVNEAKKQVEKALEC [TN peptide 7]", "Conjugation efficiency of the TN peptides for the purified antibodies": 98}, {"sequence": "LRRDLDAVREAKKQVEMALEC [TN peptide 11]", "Conjugation efficiency of the TN peptides for the purified antibodies": 100}, {"sequence": "LRRDLDAVREAKKQVERALEC [TN peptide 10]", "Conjugation efficiency of the TN peptides for the purified antibodies": 98}, {"sequence": "LRRDLDAVREAKNQVEKALEC [TN peptide 9]", "Conjugation efficiency of the TN peptides for the purified antibodies": 99}]}]}
